Measured data: PubChem BioAssay AID1671195 (Yale University, 2021)

- Screen: 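Regulators of LDL receptor activity judged by labelled LDL uptake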 (primary screen)
- System: human Huh7 hepatoma cells
- Reagent: siRNA pool against human genes, 18 nM
- Duration: about 2 to 2.5 days of knockdown, then 8 h LDL uptake
- Treatment: DiI-labelled LDL at 30 µg/ml for 8 h, in lipoprotein-deficient serum medium
- Measured: 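Fluorescent LDL signal imaged in cells, scaled to the plate median, robust z-score for each replicate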
- Reading the numbers: robust z-score: higher = more LDL uptake after knockdown
- Rule for the call: 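Active when two or more replicates show a robust z-score above 2 or below -2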
In all, the deposit lists about 22,000 reagents; this is an unselected part. Of all reagents, about 1,510 (6.9%) got an active call. 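Active includes knockdowns raising or lowering LDL uptake; positive z-scores mean more uptake, negative mean less.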 Entries without a mark were called inactive.

For SAC3D1 the deposit lists robust z-score, replicate 1 = -0.208; robust z-score, replicate 2 = 0.0269; robust z-score, replicate 3 = -1.29.
EDA showed robust z-score, replicate 1 = -1.02; robust z-score, replicate 2 = 1.28; robust z-score, replicate 3 = -0.379.
Knock-down of HLA-DQA1 gave: robust z-score, replicate 1 = -2.64 (active); robust z-score, replicate 2 = -1.76; robust z-score, replicate 3 = -2.32.
Against LINC00857, the entry reads robust z-score, replicate 1 = 0.0244; robust z-score, replicate 2 = -0.262; robust z-score, replicate 3 = -0.382.
LOC391373 (retired record) gave robust z-score, replicate 1 = -0.486; robust z-score, replicate 2 = -0.956; robust z-score, replicate 3 = -1.09.
PIGL scored robust z-score, replicate 1 = 0.204; robust z-score, replicate 2 = 0.921; robust z-score, replicate 3 = 0.0874.
With knock-down of DEFB123 the results were robust z-score, replicate 1 = -0.502; robust z-score, replicate 2 = -0.544; robust z-score, replicate 3 = -0.334.
Silencing of ZFP64 resulted in: robust z-score, replicate 1 = 0.953; robust z-score, replicate 2 = 0.782; robust z-score, replicate 3 = 0.826.
With knock-down of LOC402095 (retired record) the results were robust z-score, replicate 1 = -0.979; robust z-score, replicate 2 = -1.34; robust z-score, replicate 3 = -0.739.
Silencing of CYP2F1 came out at: robust z-score, replicate 1 = 2.32 (active); robust z-score, replicate 2 = 1.95; robust z-score, replicate 3 = 1.61.
Silencing of RPGR gave: robust z-score, replicate 1 = -1.04; robust z-score, replicate 2 = -0.465; robust z-score, replicate 3 = -0.621.
After knock-down of ZNF416 the results were robust z-score, replicate 1 = -1; robust z-score, replicate 2 = -0.401; robust z-score, replicate 3 = -1.33.
CERS3 scored robust z-score, replicate 1 = 3.66 (active); robust z-score, replicate 2 = 3.58; robust z-score, replicate 3 = 3.86.

Active calls, of those listed so far:
HLA-DQA1 — robust z-score, replicate 1 = -2.64 (active); robust z-score, replicate 2 = -1.76; robust z-score, replicate 3 = -2.32
CYP2F1 — robust z-score, replicate 1 = 2.32 (active); robust z-score, replicate 2 = 1.95; robust z-score, replicate 3 = 1.61
CERS3 — robust z-score, replicate 1 = 3.66 (active); robust z-score, replicate 2 = 3.58; robust z-score, replicate 3 = 3.86

Additional entries:
Knock-down of PPT1 gave: robust z-score, replicate 1 = 1.41 (active); robust z-score, replicate 2 = 1.93; robust z-score, replicate 3 = 2.23.
SLC45A2 scored robust z-score, replicate 1 = 0.191; robust z-score, replicate 2 = -0.519; robust z-score, replicate 3 = 1.27.
With knock-down of CXCL17, the screen gave robust z-score, replicate 1 = -1.47; robust z-score, replicate 2 = -1.31; robust z-score, replicate 3 = -1.56.
Silencing of LOC285344 (retired record) gave: robust z-score, replicate 1 = 1.55; robust z-score, replicate 2 = 1.95; robust z-score, replicate 3 = 1.97.
SULT1A2 scored robust z-score, replicate 1 = 3.11 (active); robust z-score, replicate 2 = 2.94; robust z-score, replicate 3 = 3.8.
After knock-down of SH3TC2-DT the results were robust z-score, replicate 1 = 0.0217; robust z-score, replicate 2 = 0.305; robust z-score, replicate 3 = -0.0213.
Against CEP95, the values are robust z-score, replicate 1 = -0.29; robust z-score, replicate 2 = -0.0869; robust z-score, replicate 3 = 0.389.
Depletion of COL11A2 gave: robust z-score, replicate 1 = -0.638; robust z-score, replicate 2 = -0.914; robust z-score, replicate 3 = -1.17.
After knock-down of BEND7 the results were robust z-score, replicate 1 = -0.29; robust z-score, replicate 2 = -0.535; robust z-score, replicate 3 = -0.289.
With knock-down of FTH1P4, the screen gave robust z-score, replicate 1 = -0.116; robust z-score, replicate 2 = -1.25; robust z-score, replicate 3 = -0.822.
Silencing of ACOT11 gave: robust z-score, replicate 1 = 0.0972; robust z-score, replicate 2 = 0.216; robust z-score, replicate 3 = 0.477.
Against TTC19, the values are robust z-score, replicate 1 = 0.866; robust z-score, replicate 2 = 2.2; robust z-score, replicate 3 = 1.22.
Silencing of DNTTIP2 gave: robust z-score, replicate 1 = 0.971; robust z-score, replicate 2 = 1.53; robust z-score, replicate 3 = -0.842.
With knock-down of RFXANK the results were robust z-score, replicate 1 = 0.0087; robust z-score, replicate 2 = 0.0563; robust z-score, replicate 3 = -0.424.
Knock-down of KPNA3 resulted in: robust z-score, replicate 1 = -0.532; robust z-score, replicate 2 = -0.476; robust z-score, replicate 3 = -0.429.
Against DHODH, the entry reads robust z-score, replicate 1 = -0.214; robust z-score, replicate 2 = -0.571; robust z-score, replicate 3 = -0.748.
With knock-down of KRTAP13-4, the screen gave robust z-score, replicate 1 = -2.29 (active); robust z-score, replicate 2 = -2.75; robust z-score, replicate 3 = -2.72.
